# Some entries repeat one wording, which the source may state once for all of them.
# System: GTPases (H-Ras, H-Ras G12V, Cdc42, Cdc42 Q61L, Rac1, Rac1 Q61L, RhoA, Rab7)
# Assay: Multiplex dose-response assay, statements across the GTPase panel
# Conditions: BODIPY-FL GTP 25 nM, 100 nM, 250 nM
row,SMILES,change of EC50 values with the concentration of BODIPY-FL GTP
1,CC1(C)Cc2c(sc(NC(=S)NC(=O)c3ccc(F)cc3)c2C(=O)O)CO1 [Compound 9],increased almost linearly
2,CC1(C)Cc2c(sc(NC(=S)NC(=O)c3ccccc3)c2C(=O)O)CO1 [Compound 1],increased almost linearly
3,O=C(NC(=S)Nc1sc2c(c1C(=O)O)CCOC2)c1ccccc1 [Compound 3],increased almost linearly

# From article PMC4527730, “A Pan-GTPase Inhibitor as a Molecular Probe” (PLoS ONE, 2015)
